{
  "source": "patent US20220220557A1",
  "about": "“Use of Cystatin SN in Detecting Chronic Rhinosinusitis with Nasal Polyps Subtype and Predicting Sensitivity of Patient to Glucocorticoid” (BEIJING TONGREN HOSPITAL, CAPITAL MEDICAL UNIVERSITY, priority 2018, published 2022)",
  "system": "CST1 concentration in the nasal secretions",
  "assay": "Oral hormone treatment of patients with chronic rhinosinusitis with nasal polyps; CST1 concentration in nasal secretions by ELISA before and after treatment",
  "format": "in vivo, human",
  "conditions": "methylprednisolone 24 mg oral, 2 weeks",
  "note": "At least one structure is not confirmed: it was looked up by name or label, or the drawing left a doubt.",
  "data": [
    {"smiles": "C[C@H]1C[C@@H]2[C@H]([C@@H](O)C[C@@]3(C)[C@H]2CC[C@]3(O)C(=O)CO)[C@@]2(C)C=CC(=O)C=C12", "note": "[oral hormone, methylprednisolone]", "values": [
      {"measurement": "effect of oral hormone treatment on CST1 concentration in the nasal secretions", "setting": "hormone-insensitive patients, FIG. 22", "value": "no statistical difference"},
      {"measurement": "effect of oral hormone treatment on CST1 concentration in the nasal secretions", "setting": "hormone-sensitive patients, FIG. 21", "value": "reduce the CST1 concentration"}
    ]}
  ]
}
